The source of these data is the supplement of paper PMC12067093, “Discovery and optimisation of a covalent ligand for TRIM25 and its application to targeted protein ubiquitination” (Chemical Science, 2025).

Sequences of proteins named here, by UniProt entry; tags and fusion partners are left off. A change or cut given only in a name is not applied to a line headed by its entry.
UniProt P30281: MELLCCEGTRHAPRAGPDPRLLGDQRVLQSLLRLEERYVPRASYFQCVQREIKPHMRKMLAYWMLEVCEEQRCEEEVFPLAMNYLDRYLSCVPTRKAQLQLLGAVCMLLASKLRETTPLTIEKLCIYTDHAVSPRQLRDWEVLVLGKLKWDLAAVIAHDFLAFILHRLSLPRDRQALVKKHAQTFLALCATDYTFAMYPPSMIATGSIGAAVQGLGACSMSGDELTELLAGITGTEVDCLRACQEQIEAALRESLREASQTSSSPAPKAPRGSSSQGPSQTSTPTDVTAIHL
UniProt Q96A33: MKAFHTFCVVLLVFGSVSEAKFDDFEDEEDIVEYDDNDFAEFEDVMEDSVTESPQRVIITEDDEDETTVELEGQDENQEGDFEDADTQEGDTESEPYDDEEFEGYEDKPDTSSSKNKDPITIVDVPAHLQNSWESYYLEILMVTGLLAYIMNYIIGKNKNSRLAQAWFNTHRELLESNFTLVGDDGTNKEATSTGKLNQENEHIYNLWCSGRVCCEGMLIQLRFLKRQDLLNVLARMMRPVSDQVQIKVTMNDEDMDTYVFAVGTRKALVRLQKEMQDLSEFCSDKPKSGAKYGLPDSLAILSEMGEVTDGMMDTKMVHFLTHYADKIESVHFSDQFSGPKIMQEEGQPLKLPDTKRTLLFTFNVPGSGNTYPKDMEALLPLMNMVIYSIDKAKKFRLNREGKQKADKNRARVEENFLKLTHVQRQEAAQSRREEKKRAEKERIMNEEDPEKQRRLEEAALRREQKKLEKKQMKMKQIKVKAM
UniProt O75828: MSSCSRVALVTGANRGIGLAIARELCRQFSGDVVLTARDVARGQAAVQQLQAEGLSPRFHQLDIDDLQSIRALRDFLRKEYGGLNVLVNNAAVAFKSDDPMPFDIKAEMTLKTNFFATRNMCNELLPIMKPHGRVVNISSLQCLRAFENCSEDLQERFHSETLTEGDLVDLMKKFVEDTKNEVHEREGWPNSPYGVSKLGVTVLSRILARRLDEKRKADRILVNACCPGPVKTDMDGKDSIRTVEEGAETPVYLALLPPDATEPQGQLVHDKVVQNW
UniProt Q01518, whole entry, looked up: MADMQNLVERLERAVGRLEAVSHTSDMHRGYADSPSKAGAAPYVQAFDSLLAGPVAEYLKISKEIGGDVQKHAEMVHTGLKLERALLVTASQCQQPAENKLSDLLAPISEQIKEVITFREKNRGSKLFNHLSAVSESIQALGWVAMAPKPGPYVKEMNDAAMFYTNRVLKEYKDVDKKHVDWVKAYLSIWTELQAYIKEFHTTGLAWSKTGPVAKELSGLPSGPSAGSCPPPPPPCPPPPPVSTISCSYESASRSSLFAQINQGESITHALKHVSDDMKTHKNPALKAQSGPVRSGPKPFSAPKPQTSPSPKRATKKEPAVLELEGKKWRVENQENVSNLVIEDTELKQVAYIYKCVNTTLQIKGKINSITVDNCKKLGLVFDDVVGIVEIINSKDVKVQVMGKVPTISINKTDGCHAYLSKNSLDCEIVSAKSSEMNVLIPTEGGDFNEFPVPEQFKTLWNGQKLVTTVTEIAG
UniProt Q9H257: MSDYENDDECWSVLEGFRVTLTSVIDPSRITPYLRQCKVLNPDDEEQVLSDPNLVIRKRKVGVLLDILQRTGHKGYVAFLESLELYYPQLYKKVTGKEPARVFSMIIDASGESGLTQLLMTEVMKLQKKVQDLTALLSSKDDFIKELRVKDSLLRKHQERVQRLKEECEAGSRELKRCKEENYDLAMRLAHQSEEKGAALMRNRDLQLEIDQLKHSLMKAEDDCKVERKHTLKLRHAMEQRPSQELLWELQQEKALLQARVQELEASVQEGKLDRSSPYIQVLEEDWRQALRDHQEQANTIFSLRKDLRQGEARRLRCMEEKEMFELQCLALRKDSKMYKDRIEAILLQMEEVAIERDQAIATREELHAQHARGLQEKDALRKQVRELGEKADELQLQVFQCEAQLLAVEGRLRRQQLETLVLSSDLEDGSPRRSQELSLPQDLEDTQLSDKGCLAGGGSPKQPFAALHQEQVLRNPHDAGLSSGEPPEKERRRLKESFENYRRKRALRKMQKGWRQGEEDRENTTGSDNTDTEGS
UniProt P29466: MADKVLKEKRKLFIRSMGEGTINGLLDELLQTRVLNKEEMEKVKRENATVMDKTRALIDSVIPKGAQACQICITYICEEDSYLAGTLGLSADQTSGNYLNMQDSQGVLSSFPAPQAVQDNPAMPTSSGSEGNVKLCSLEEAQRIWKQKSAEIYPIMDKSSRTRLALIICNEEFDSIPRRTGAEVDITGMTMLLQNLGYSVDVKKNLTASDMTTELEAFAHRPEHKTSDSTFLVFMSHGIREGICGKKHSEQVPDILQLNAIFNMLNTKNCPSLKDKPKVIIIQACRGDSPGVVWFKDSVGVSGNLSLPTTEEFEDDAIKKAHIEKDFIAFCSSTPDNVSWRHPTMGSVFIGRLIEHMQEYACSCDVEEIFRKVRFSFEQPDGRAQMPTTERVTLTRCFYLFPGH
UniProt P51946: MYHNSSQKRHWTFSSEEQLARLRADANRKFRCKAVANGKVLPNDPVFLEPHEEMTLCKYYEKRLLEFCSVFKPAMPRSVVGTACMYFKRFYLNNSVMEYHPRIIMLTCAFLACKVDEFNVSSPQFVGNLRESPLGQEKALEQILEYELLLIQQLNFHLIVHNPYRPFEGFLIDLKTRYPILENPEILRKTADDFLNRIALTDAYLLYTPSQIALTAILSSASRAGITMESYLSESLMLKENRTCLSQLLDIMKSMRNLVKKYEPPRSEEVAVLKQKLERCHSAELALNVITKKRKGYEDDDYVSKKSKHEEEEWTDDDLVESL
UniProt P16152: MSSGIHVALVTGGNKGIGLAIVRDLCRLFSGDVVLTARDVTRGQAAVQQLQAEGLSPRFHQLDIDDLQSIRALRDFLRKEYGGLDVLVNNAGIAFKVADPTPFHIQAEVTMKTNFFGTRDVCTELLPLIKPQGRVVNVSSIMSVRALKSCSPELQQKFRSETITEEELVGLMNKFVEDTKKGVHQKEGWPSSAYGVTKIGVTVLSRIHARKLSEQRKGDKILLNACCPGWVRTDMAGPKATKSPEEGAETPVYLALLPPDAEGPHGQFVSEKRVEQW
UniProt Q6P1N0: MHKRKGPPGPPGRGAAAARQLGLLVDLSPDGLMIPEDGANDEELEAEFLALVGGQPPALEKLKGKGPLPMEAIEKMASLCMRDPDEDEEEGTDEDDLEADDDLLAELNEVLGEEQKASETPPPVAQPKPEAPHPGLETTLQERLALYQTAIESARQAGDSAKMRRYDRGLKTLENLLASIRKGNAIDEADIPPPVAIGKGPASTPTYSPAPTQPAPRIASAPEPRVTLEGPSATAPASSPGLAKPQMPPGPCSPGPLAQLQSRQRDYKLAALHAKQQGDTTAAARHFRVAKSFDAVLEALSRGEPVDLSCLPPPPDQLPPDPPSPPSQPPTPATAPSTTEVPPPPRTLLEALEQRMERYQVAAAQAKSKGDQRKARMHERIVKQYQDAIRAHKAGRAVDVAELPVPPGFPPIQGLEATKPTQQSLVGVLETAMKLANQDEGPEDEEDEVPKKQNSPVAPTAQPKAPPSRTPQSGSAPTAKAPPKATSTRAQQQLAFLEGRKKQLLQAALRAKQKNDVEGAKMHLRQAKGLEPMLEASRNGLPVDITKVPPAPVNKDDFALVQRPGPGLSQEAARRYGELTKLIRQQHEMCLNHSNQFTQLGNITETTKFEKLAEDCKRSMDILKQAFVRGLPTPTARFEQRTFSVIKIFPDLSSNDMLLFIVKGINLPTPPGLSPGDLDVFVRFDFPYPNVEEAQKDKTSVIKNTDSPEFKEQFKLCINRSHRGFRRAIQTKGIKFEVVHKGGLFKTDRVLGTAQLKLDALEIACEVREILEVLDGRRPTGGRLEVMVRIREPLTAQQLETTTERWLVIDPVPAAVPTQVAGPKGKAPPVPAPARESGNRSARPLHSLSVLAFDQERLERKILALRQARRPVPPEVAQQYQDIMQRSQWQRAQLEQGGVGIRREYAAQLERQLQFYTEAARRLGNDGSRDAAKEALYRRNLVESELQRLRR
UniProt O60826, whole entry, looked up: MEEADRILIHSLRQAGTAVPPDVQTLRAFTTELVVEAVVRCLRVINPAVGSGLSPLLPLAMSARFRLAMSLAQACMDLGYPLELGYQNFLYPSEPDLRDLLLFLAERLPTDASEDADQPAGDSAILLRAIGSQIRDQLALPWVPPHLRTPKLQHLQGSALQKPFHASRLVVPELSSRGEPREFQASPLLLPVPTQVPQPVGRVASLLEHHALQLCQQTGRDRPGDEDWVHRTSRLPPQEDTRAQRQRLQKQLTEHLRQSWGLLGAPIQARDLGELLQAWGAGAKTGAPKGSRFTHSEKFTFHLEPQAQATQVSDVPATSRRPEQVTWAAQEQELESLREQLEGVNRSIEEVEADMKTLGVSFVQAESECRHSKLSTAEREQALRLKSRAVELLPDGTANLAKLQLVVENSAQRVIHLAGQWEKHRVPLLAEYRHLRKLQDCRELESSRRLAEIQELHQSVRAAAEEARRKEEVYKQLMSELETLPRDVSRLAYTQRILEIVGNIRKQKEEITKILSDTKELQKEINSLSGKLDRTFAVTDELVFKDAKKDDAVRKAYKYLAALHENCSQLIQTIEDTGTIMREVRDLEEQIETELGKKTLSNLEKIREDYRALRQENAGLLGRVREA
UniProt P07384: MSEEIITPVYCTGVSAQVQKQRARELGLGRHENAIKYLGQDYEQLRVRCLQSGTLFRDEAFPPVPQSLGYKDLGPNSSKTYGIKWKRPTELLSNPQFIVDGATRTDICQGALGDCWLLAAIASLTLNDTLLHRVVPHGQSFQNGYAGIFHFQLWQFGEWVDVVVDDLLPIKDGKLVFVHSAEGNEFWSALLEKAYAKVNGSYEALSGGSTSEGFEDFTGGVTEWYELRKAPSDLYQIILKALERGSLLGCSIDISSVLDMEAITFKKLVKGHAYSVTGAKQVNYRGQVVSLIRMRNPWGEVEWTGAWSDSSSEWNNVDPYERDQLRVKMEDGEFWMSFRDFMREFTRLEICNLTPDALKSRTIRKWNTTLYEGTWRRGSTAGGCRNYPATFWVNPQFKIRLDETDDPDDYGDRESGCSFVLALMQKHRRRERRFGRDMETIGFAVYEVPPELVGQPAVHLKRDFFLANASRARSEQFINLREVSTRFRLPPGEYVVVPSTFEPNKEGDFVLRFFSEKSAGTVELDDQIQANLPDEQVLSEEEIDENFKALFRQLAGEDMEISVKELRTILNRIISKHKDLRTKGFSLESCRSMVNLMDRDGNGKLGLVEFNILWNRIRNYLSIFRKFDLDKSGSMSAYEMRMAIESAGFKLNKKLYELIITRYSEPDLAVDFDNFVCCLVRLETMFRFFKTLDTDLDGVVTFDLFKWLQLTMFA
UniProt O75808: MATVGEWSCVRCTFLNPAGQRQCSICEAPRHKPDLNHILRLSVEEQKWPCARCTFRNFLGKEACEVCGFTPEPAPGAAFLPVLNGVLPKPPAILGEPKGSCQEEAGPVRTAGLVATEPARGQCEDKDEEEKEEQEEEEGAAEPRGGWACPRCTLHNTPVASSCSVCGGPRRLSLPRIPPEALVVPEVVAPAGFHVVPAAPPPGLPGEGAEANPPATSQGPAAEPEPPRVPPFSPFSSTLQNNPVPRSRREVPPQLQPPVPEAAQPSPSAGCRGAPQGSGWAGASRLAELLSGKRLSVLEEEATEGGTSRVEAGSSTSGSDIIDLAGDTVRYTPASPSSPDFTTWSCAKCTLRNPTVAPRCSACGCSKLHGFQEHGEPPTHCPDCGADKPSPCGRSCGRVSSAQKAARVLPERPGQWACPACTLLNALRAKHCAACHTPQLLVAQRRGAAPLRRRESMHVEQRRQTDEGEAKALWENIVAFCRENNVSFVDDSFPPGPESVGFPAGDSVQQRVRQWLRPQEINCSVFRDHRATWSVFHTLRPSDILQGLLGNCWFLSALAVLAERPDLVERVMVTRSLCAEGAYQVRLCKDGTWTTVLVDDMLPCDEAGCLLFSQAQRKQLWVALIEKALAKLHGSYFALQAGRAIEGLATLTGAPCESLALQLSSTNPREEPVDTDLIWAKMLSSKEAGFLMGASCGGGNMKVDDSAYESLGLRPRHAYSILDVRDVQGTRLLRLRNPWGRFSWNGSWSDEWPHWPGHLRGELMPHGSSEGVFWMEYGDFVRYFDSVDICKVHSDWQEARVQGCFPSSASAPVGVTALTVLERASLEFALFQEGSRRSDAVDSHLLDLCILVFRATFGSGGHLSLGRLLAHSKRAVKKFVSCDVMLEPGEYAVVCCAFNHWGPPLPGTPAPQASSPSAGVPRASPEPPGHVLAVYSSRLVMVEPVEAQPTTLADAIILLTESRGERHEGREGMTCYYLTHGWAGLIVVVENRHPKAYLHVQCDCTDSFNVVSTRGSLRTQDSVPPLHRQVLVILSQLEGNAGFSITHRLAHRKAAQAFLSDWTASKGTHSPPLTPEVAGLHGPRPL

Some of the results follow.
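Also: competitive profiling in live THP-1 cells: cysteine peptides tagged with an iodoacetamide desthiobiotin (IA-DTB) probe, intensity after compound treatment relative to DMSO-treated cells.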

Compound in the first experiment: Cc1cc(ccc1-c1ccccc1)C(=O)N1CCCN(CC1)C(=O)CCl [compound 10]
Description: probe-labelled cysteine peptide fold change vs DMSO (competition) (log2 fold change); higher = less target engagement (more negative = stronger competition). The settings on record: 10 µM; THP-1; incubation time: 4 h.
As for “CCND3_P30281_6_MELLCCEGTR (UniProt P30281)”, the “probe-labelled cysteine peptide fold change” value was -0.184.

Consider “CASP2_P42575_399_ACDMHVADMLVK (UniProt P42575)”, for which the “probe-labelled cysteine peptide fold change” value is -0.119.

Take “CAPZA1_P52907_124_ESCDSALR (UniProt P52907)”: the “probe-labelled cysteine peptide fold change” value was determined as 0.103.

For the target “CAPN2_P17655_640_MPCQLHQVIVAR (UniProt P17655)”, the “probe-labelled cysteine peptide fold change” value came to 0.0245.

For the target “CCDC47_Q96A33_214_VCCEGMLIQLR (UniProt Q96A33)”, the “probe-labelled cysteine peptide fold change” value was -0.198.

As to “CARS_P49589_335_ASKPGEPSWPCPWGK (UniProt P49589)”, the “probe-labelled cysteine peptide fold change” value was -0.0902.

With “CBFB_Q13951_124_LDGMGCLEFDEER (UniProt Q13951)”, the “probe-labelled cysteine peptide fold change” value turned out to be 0.00622.

Take “CASP8_Q14790-2_188_GEELCGVMTISDSPR (UniProt Q14790)”: the “probe-labelled cysteine peptide fold change” value is -0.0348.

On to “CASP6_P55212_277_KQVPCFASMLTK (UniProt P55212)”, for which the “probe-labelled cysteine peptide fold change” value amounted to 0.00971.

In the case of “CCT2_P78371_289_HGINCFINR (UniProt P78371)”, the “probe-labelled cysteine peptide fold change” value came to 0.0675.

On to “CAPG_P40121_77_DEQGACAVLAVHLNTLLGER (UniProt P40121)”, for which the “probe-labelled cysteine peptide fold change” value turned out to be 0.242.

For the target “CAPZB_P47756_147_GCWDSIHVVEVQEK (UniProt P47756)”, the “probe-labelled cysteine peptide fold change” value is 0.126.

With “CAPG_P40121_77_DEQGACAVLAVHLNTLLGERPVQHR (UniProt P40121)”, the “probe-labelled cysteine peptide fold change” value is 0.105.

As for “CASP9_P55211_187_TGSNIDCEK (UniProt P55211)”, the “probe-labelled cysteine peptide fold change” value was -0.273.

For “CBR3_O75828_150_AFENCSEDLQER (UniProt O75828)”, the “probe-labelled cysteine peptide fold change” value was 0.369.

Regarding “CAP1_Q01518_416_VPTISINKTDGCHAYLSK (UniProt Q01518)”, the “probe-labelled cysteine peptide fold change” value is -0.167.

Consider “CARD9_Q9H257_178_CKEENYDLAMR (UniProt Q9H257)”, for which the “probe-labelled cysteine peptide fold change” value was found to be 0.317.

Turning to “CASP9_P55211_272_IVNIFNGTSCPSLGGKPK (UniProt P55211)”, the “probe-labelled cysteine peptide fold change” value was -0.0912.

Regarding “CARS_P49589_389_FPHHDNELAQSEAYFENDCWVR (UniProt P49589)”, the “probe-labelled cysteine peptide fold change” value was -0.0658.

As for “CASP1_P29466_362_LIEHMQEYACSCDVEEIFRK (UniProt P29466)”, the “probe-labelled cysteine peptide fold change” value is 0.0559.

For the target “CCT3_P49368_366_IGDEYFTFITDCKDPK (UniProt P49368)”, the “probe-labelled cysteine peptide fold change” value was -0.00752.

As for “CASP1_P29466_270_NCPSLK (UniProt P29466)”, the “probe-labelled cysteine peptide fold change” value was -0.107.

Turning to “CCNH_P51946_57_VLPNDPVFLEPHEEMTLCK (UniProt P51946)”, the “probe-labelled cysteine peptide fold change” value amounted to 0.162.

As for “CASP7_P55210_186_LFFIQACR (UniProt P55210)”, the “probe-labelled cysteine peptide fold change” value was -0.135.

Take “CBR1_P16152_122_DVCTELLPLIKPQGR (UniProt P16152)”: the “probe-labelled cysteine peptide fold change” value is -0.0593.

“CCT5_P48643_181_VVNSCHR (UniProt P48643)”: the “probe-labelled cysteine peptide fold change” value was found to be 0.0564.

For the target “CC2D1A_Q6P1N0_765_LDALEIACEVR (UniProt Q6P1N0)”, the “probe-labelled cysteine peptide fold change” value worked out at 0.0115.

Turning to “CCDC22_O60826_215_VASLLEHHALQLCQQTGR (UniProt O60826)”, the “probe-labelled cysteine peptide fold change” value is -0.0248.

Consider “CCT3_P49368_366_KIGDEYFTFITDCKDPK (UniProt P49368)”, for which the “probe-labelled cysteine peptide fold change” value is -0.035.

Take “CCAR2_Q8N163_324_CCMLFVDDMAEPR (UniProt Q8N163)”: the “probe-labelled cysteine peptide fold change” value was -0.0436.

In the case of “CAPN1_P07384_351_LEICNLTPDALK (UniProt P07384)”, the “probe-labelled cysteine peptide fold change” value was -0.0154.

In the case of “CASP2_P42575_30_ILGVCGMHPHHQETLKK (UniProt P42575)”, the “probe-labelled cysteine peptide fold change” value is -0.432.

“CBLL1_Q75N03_133_HVFCYDCAILHEK (UniProt Q75N03)”: the “probe-labelled cysteine peptide fold change” value stood at 0.137.

Take “CAPN15_O75808_9_ATVGEWSCVR (UniProt O75808)”: the “probe-labelled cysteine peptide fold change” value was 0.282.

As to “CASKIN2_Q8WXE0_185_VAQLLLNSHLCVALLEGEAKDPCDPNYTTPLHLAAK (UniProt Q8WXE0)”, the “probe-labelled cysteine peptide fold change” value was -0.0127.

Take “CAPN1_P07384_11_SEEIITPVYCTGVSAQVQK (UniProt P07384)”: the “probe-labelled cysteine peptide fold change” value is -0.286.

Regarding “CAPN1_P07384_417_ESGCSFVLALMQK (UniProt P07384)”, the “probe-labelled cysteine peptide fold change” value worked out at 0.0605.

Staying with this experiment, now noted: 50 µM; THP-1; incubation time: 4 h.
As to “CCND3_P30281_6_MELLCCEGTR (UniProt P30281)”, the “probe-labelled cysteine peptide fold change” value is -0.26.

With “CASP2_P42575_399_ACDMHVADMLVK (UniProt P42575)”, the “probe-labelled cysteine peptide fold change” value was -0.204.

Regarding “CAPZA1_P52907_124_ESCDSALR (UniProt P52907)”, the “probe-labelled cysteine peptide fold change” value amounted to 0.0474.

For the target “CAPN2_P17655_640_MPCQLHQVIVAR (UniProt P17655)”, the “probe-labelled cysteine peptide fold change” value is -0.0914.

Consider “CCDC47_Q96A33_214_VCCEGMLIQLR (UniProt Q96A33)”, for which the “probe-labelled cysteine peptide fold change” value was 0.124.

Turning to “CARS_P49589_335_ASKPGEPSWPCPWGK (UniProt P49589)”, the “probe-labelled cysteine peptide fold change” value was -0.216.

As to “CBFB_Q13951_124_LDGMGCLEFDEER (UniProt Q13951)”, the “probe-labelled cysteine peptide fold change” value is 0.226.

Regarding “CASP8_Q14790-2_188_GEELCGVMTISDSPR (UniProt Q14790)”, the “probe-labelled cysteine peptide fold change” value came to 0.0124.

With “CASP6_P55212_277_KQVPCFASMLTK (UniProt P55212)”, the “probe-labelled cysteine peptide fold change” value was -0.323.

Regarding “CCT2_P78371_289_HGINCFINR (UniProt P78371)”, the “probe-labelled cysteine peptide fold change” value stood at 0.0153.

Consider “CAPG_P40121_77_DEQGACAVLAVHLNTLLGER (UniProt P40121)”, for which the “probe-labelled cysteine peptide fold change” value was 0.312.

As for “CAPZB_P47756_147_GCWDSIHVVEVQEK (UniProt P47756)”, the “probe-labelled cysteine peptide fold change” value came to 0.0545.

“CAPG_P40121_77_DEQGACAVLAVHLNTLLGERPVQHR (UniProt P40121)”: the “probe-labelled cysteine peptide fold change” value was 0.224.

In the case of “CASP9_P55211_187_TGSNIDCEK (UniProt P55211)”, the “probe-labelled cysteine peptide fold change” value is -0.256.

Consider “CBR3_O75828_150_AFENCSEDLQER (UniProt O75828)”, for which the “probe-labelled cysteine peptide fold change” value came to 0.0721.

As to “CAP1_Q01518_416_VPTISINKTDGCHAYLSK (UniProt Q01518)”, the “probe-labelled cysteine peptide fold change” value was -0.3.

“CARD9_Q9H257_178_CKEENYDLAMR (UniProt Q9H257)”: the “probe-labelled cysteine peptide fold change” value is -0.0989.

On to “CASP9_P55211_272_IVNIFNGTSCPSLGGKPK (UniProt P55211)”, for which the “probe-labelled cysteine peptide fold change” value was -0.316.

As for “CARS_P49589_389_FPHHDNELAQSEAYFENDCWVR (UniProt P49589)”, the “probe-labelled cysteine peptide fold change” value is 0.153.

For “CASP1_P29466_362_LIEHMQEYACSCDVEEIFRK (UniProt P29466)”, the “probe-labelled cysteine peptide fold change” value is -0.385.

“CCT3_P49368_366_IGDEYFTFITDCKDPK (UniProt P49368)”: the “probe-labelled cysteine peptide fold change” value is -0.866.

For “CASP1_P29466_270_NCPSLK (UniProt P29466)”, the “probe-labelled cysteine peptide fold change” value was -0.125.

For “CCNH_P51946_57_VLPNDPVFLEPHEEMTLCK (UniProt P51946)”, the “probe-labelled cysteine peptide fold change” value was 0.455.

As for “CASP7_P55210_186_LFFIQACR (UniProt P55210)”, the “probe-labelled cysteine peptide fold change” value was -0.227.

Regarding “CBR1_P16152_122_DVCTELLPLIKPQGR (UniProt P16152)”, the “probe-labelled cysteine peptide fold change” value was -0.0026.

Consider “CCT5_P48643_181_VVNSCHR (UniProt P48643)”, for which the “probe-labelled cysteine peptide fold change” value was 0.0289.

As to “CC2D1A_Q6P1N0_765_LDALEIACEVR (UniProt Q6P1N0)”, the “probe-labelled cysteine peptide fold change” value worked out at 0.276.

As to “CCDC22_O60826_215_VASLLEHHALQLCQQTGR (UniProt O60826)”, the “probe-labelled cysteine peptide fold change” value was determined as 0.208.

“CCT3_P49368_366_KIGDEYFTFITDCKDPK (UniProt P49368)”: the “probe-labelled cysteine peptide fold change” value was -0.702.

On to “CCAR2_Q8N163_324_CCMLFVDDMAEPR (UniProt Q8N163)”, for which the “probe-labelled cysteine peptide fold change” value was -0.0686.

Regarding “CAPN1_P07384_351_LEICNLTPDALK (UniProt P07384)”, the “probe-labelled cysteine peptide fold change” value amounted to 0.169.

As to “CASP2_P42575_30_ILGVCGMHPHHQETLKK (UniProt P42575)”, the “probe-labelled cysteine peptide fold change” value is -1.14.

In the case of “CBLL1_Q75N03_133_HVFCYDCAILHEK (UniProt Q75N03)”, the “probe-labelled cysteine peptide fold change” value worked out at 0.0843.

Regarding “CAPN15_O75808_9_ATVGEWSCVR (UniProt O75808)”, the “probe-labelled cysteine peptide fold change” value came to 0.243.

As to “CASKIN2_Q8WXE0_185_VAQLLLNSHLCVALLEGEAKDPCDPNYTTPLHLAAK (UniProt Q8WXE0)”, the “probe-labelled cysteine peptide fold change” value was -1.02.

As to “CAPN1_P07384_11_SEEIITPVYCTGVSAQVQK (UniProt P07384)”, the “probe-labelled cysteine peptide fold change” value is -0.0134.

Turning to “CAPN1_P07384_417_ESGCSFVLALMQK (UniProt P07384)”, the “probe-labelled cysteine peptide fold change” value was 0.351.
